Tested on: human lymphocytes
Experiment: Inhibition of PHA-stimulated lymphocyte proliferation ([3H]thymidine incorporation)
Format: cell-based
Conditions: cytotoxicity IC50 / immunosuppressive IC50

Compound	Selectivity Ratio [A]/[B]
COc1ccc(CCn2cc(-c3ccc(OC)c(OC)c3)c3c4cc(OC)c(OC)cc4oc(=O)c32)cc1OC [Ningalin N3, 1-(3,4-Dimethoxy-phenyl)-3-[2-(3,4-dimethoxy-phenyl)-ethyl]-7,8-dimethoxy-3H-5-oxa-3-aza-cyclopenta[α]naphthalen-4-one]	100.6
COc1ccc(CCn2c(C(=O)N(C)C)c(-c3ccc(OC)c(OC)c3)c3c4cc(OC)c(OC)cc4oc(=O)c32)cc1OC [Ningalin N5, 1-(3,4-Dimethoxy-phenyl)-3-[2-(3,4-dimethoxy-phenyl)-ethyl]-7,8-dimethoxy-4-oxo-3,4-dihydro-5-oxa-3-aza-cyclopenta[α]naphthalene-2-carboxylic acid dimethylamide]	100.3
